The record followed here is patent US20230174623A1.

The target in test [1] is collagen type IV (collagen IV coated 96 well-plates, Corning). The experiment in a line: closing sentence of the example on its collagen binding assay.
In test [2] the target is collagen type I (collagen I coated 96 well-plates, Gibco). Described as above.
Test [3] shares this target. Briefly: ELISA, collagen I coated plate. (An ELISA detects its analyte on a solid surface through an enzyme-linked reagent.)
Test [4] has the same target. The experiment in a line: ELISA, left panel Collagen I, anti-6xHis-HRP.
Test [5] concerns the target collagen type IV (collagen IV coated 96 well-plates, Corning). Briefly: ELISA, right panel Collagen IV, anti-6xHis-HRP.
Test [6] has the same target. The experiment in a line: ELISA, collagen IV coated plate.

These are yes or no findings as the source states them, for the method shown. A result given as binding can be weak or reduced; the word gives no strength. For part of these data: Sequences can lack the tags named with a protein.

B1: Lumican-MSA-Fc-III-4C (protein)
chain: QYYDYDIPLFMYGQISPNCAPECNCPHSYPTAMYCDDLKLKSVPMVPPGIKYLYLRNNQIDHIDEKAFENVTDLQWLILDHNLLENSKIKGKVFSKLKQLKKLHINYNNLTESVGPLPKSLQDLQLTNNKISKLGSFDGLVNLTFIYLQHNQLKEDAVSASLKGLKSLEYLDLSFNQMSKLPAGLPTSLLTLYLDNNKISNIPDEYFKRFTGLQYLRLSHNELADSGVPGNSFNISSLLELDLSYNKLKSIPTVNENLENYYLEVNELEKFDVKSFCKILGPLSYSKIKHLRLDGNPLTQSSLPPDMYECLRVANEITVNGGGSGGGSEAHKSEIAHRYNDLGEQHFKGLVLIAFSQYLQKCSYDEHAKLVQEVTDFAKTCVADESAANCDKSLHTLFGDKLCAIPNLRENYGELADCCTKQEPERNECFLQHKDDNPSLPPFERPEAEAMCTSFKENPTTFMGHYLHEVARRHPYFYAPELLYYAEQYNEILTQCCAEADKESCLTPKLDGVKEKALVSSVRQRMKCSSMQKFGERAFKAWAVARLSQTFPNADFAEITKLATDLTKVNKECCHGDLLECADDRAELAKYMCENQATISSKLQTCCDKPLLKKAHCLSEVEHDTMPADLPAIAADFVEDQEVCKNYAEAKDVFLGTFLYEYSRRHPDYSVSLLLRLAKKYEATLEKCCAEANPPACYGTVLAEFQPLVEEPKNLVKTNCDLYEKLGEYGFQNAILVRYTQKAPQVSTPTLVEAARNLGRVGTKCCTLPEDQRLPCVEDYLSAILNRVCLLHEKTPVSEHVTKCCSGSLVERRPCFSALTVDETYVPKEFKAETFTFHSDICTLPEKEKQIKKQTALAELVKHKPKATAEQLKTVMDDFAQFLDTCCKAADKDTCFSTEGPNLVTRCKDALAGGGSCDCAWHLGELVWCTCHHHHHH
In the case of B1, the binding result in test [1] and in test [2] was “binds” throughout.

B2: Sso7d-MSA-Lumican (protein)
chain: ATVKFKYKGEEKQVDISKIYLVLRLGKFIYFYYDLGGGKLGLGHVSEKDAPKELLQMLEKQKKGGGSEAHKSEIAHRYNDLGEQHFKGLVLIAFSQYLQKCSYDEHAKLVQEVTDFAKTCVADESAANCDKSLHTLFGDKLCAIPNLRENYGELADCCTKQEPERNECFLQHKDDNPSLPPFERPEAEAMCTSFKENPTTFMGHYLHEVARRHPYFYAPELLYYAEQYNEILTQCCAEADKESCLTPKLDGVKEKALVSSVRQRMKCSSMQKFGERAFKAWAVARLSQTFPNADFAEITKLATDLTKVNKECCHGDLLECADDRAELAKYMCENQATISSKLQTCCDKPLLKKAHCLSEVEHDTMPADLPAIAADFVEDQEVCKNYAEAKDVFLGTFLYEYSRRHPDYSVSLLLRLAKKYEATLEKCCAEANPPACYGTVLAEFQPLVEEPKNLVKTNCDLYEKLGEYGFQNAILVRYTQKAPQVSTPTLVEAARNLGRVGTKCCTLPEDQRLPCVEDYLSAILNRVCLLHEKTPVSEHVTKCCSGSLVERRPCFSALTVDETYVPKEFKAETFTFHSDICTLPEKEKQIKKQTALAELVKHKPKATAEQLKTVMDDFAQFLDTCCKAADKDTCFSTEGPNLVTRCKDALAGGGSGGGSQYYDYDIPLFMYGQISPNCAPECNCPHSYPTAMYCDDLKLKSVPMVPPGIKYLYLRNNQIDHIDEKAFENVTDLQWLILDHNLLENSKIKGKVFSKLKQLKKLHINYNNLTESVGPLPKSLQDLQLTNNKISKLGSFDGLVNLTFIYLQHNQLKEDAVSASLKGLKSLEYLDLSFNQMSKLPAGLPTSLLTLYLDNNKISNIPDEYFKRFTGLQYLRLSHNELADSGVPGNSFNISSLLELDLSYNKLKSIPTVNENLENYYLEVNELEKFDVKSFCKILGPLSYSKIKHLRLDGNPLTQSSLPPDMYECLRVANEITVNGGGSHHHHHH
For B2, the binding result in test [1] and in test [2] was “binds” throughout.

B3: WGRR-MSA-Lumican (protein)
chain: QYYDYDIPLFMYGQISPNCAPECNCPHSYPTAMYCDDLKLKSVPMVPPGIKYLYLRNNQIDHIDEKAFENVTDLQWLILDHNLLENSKIKGKVFSKLKQLKKLHINYNNLTESVGPLPKSLQDLQLTNNKISKLGSFDGLVNLTFIYLQHNQLKEDAVSASLKGLKSLEYLDLSFNQMSKLPAGLPTSLLTLYLDNNKISNIPDEYFKRFTGLQYLRLSHNELADSGVPGNSFNISSLLELDLSYNKLKSIPTVNENLENYYLEVNELEKFDVKSFCKILGPLSYSKIKHLRLDGNPLTQSSLPPDMYECLRVANEITVNGGGSGGGSEAHKSEIAHRYNDLGEQHFKGLVLIAFSQYLQKCSYDEHAKLVQEVTDFAKTCVADESAANCDKSLHTLFGDKLCAIPNLRENYGELADCCTKQEPERNECFLQHKDDNPSLPPFERPEAEAMCTSFKENPTTFMGHYLHEVARRHPYFYAPELLYYAEQYNEILTQCCAEADKESCLTPKLDGVKEKALVSSVRQRMKCSSMQKFGERAFKAWAVARLSQTFPNADFAEITKLATDLTKVNKECCHGDLLECADDRAELAKYMCENQATISSKLQTCCDKPLLKKAHCLSEVEHDTMPADLPAIAADFVEDQEVCKNYAEAKDVFLGTFLYEYSRRHPDYSVSLLLRLAKKYEATLEKCCAEANPPACYGTVLAEFQPLVEEPKNLVKTNCDLYEKLGEYGFQNAILVRYTQKAPQVSTPTLVEAARNLGRVGTKCCTLPEDQRLPCVEDYLSAILNRVCLLHEKTPVSEHVTKCCSGSLVERRPCFSALTVDETYVPKEFKAETFTFHSDICTLPEKEKQIKKQTALAELVKHKPKATAEQLKTVMDDFAQFLDTCCKAADKDTCFSTEGPNLVTRCKDALAGGGSWGRRHHHHHH
On to B3, for which the binding result in test [1] and in test [2] was “binds” in each case.

B4: RRGW-MSA-Lumican (protein)
chain: QYYDYDIPLFMYGQISPNCAPECNCPHSYPTAMYCDDLKLKSVPMVPPGIKYLYLRNNQIDHIDEKAFENVTDLQWLILDHNLLENSKIKGKVFSKLKQLKKLHINYNNLTESVGPLPKSLQDLQLTNNKISKLGSFDGLVNLTFIYLQHNQLKEDAVSASLKGLKSLEYLDLSFNQMSKLPAGLPTSLLTLYLDNNKISNIPDEYFKRFTGLQYLRLSHNELADSGVPGNSFNISSLLELDLSYNKLKSIPTVNENLENYYLEVNELEKFDVKSFCKILGPLSYSKIKHLRLDGNPLTQSSLPPDMYECLRVANEITVNGGGSGGGSEAHKSEIAHRYNDLGEQHFKGLVLIAFSQYLQKCSYDEHAKLVQEVTDFAKTCVADESAANCDKSLHTLFGDKLCAIPNLRENYGELADCCTKQEPERNECFLQHKDDNPSLPPFERPEAEAMCTSFKENPTTFMGHYLHEVARRHPYFYAPELLYYAEQYNEILTQCCAEADKESCLTPKLDGVKEKALVSSVRQRMKCSSMQKFGERAFKAWAVARLSQTFPNADFAEITKLATDLTKVNKECCHGDLLECADDRAELAKYMCENQATISSKLQTCCDKPLLKKAHCLSEVEHDTMPADLPAIAADFVEDQEVCKNYAEAKDVFLGTFLYEYSRRHPDYSVSLLLRLAKKYEATLEKCCAEANPPACYGTVLAEFQPLVEEPKNLVKTNCDLYEKLGEYGFQNAILVRYTQKAPQVSTPTLVEAARNLGRVGTKCCTLPEDQRLPCVEDYLSAILNRVCLLHEKTPVSEHVTKCCSGSLVERRPCFSALTVDETYVPKEFKAETFTFHSDICTLPEKEKQIKKQTALAELVKHKPKATAEQLKTVMDDFAQFLDTCCKAADKDTCFSTEGPNLVTRCKDALAGGGSRRGWHHHHHH
Consider B4, for which the binding result in test [1] and in test [2] was “binds” throughout.

B5: 4m5.3-MSA-Lumican (protein)
chain: ADVVMTQTPLSLPVSLGDQASISCRSSQSLVHSNGNTYLRWYLQKPGQSPKVLIYKVSNRVSGVPDRFSGSGSGTDFTLKINRVEAEDLGVYFCSQSTHVPWTFGGGTKLEIKSSADDAKKDAAKKDDAKKDDAKKDGGVKLDETGGGLVQPGGAMKLSCVTSGFTFGHYWMNWVRQSPEKGLEWVAQFRNKPYNYETYYSDSVKGRFTISRDDSKSSVYLQMNNLRVEDTGIYYCTGASYGMEYLGQGTSVTVSGGGSEAHKSEIAHRYNDLGEQHFKGLVLIAFSQYLQKCSYDEHAKLVQEVTDFAKTCVADESAANCDKSLHTLFGDKLCAIPNLRENYGELADCCTKQEPERNECFLQHKDDNPSLPPFERPEAEAMCTSFKENPTTFMGHYLHEVARRHPYFYAPELLYYAEQYNEILTQCCAEADKESCLTPKLDGVKEKALVSSVRQRMKCSSMQKFGERAFKAWAVARLSQTFPNADFAEITKLATDLTKVNKECCHGDLLECADDRAELAKYMCENQATISSKLQTCCDKPLLKKAHCLSEVEHDTMPADLPAIAADFVEDQEVCKNYAEAKDVFLGTFLYEYSRRHPDYSVSLLLRLAKKYEATLEKCCAEANPPACYGTVLAEFQPLVEEPKNLVKTNCDLYEKLGEYGFQNAILVRYTQKAPQVSTPTLVEAARNLGRVGTKCCTLPEDQRLPCVEDYLSAILNRVCLLHEKTPVSEHVTKCCSGSLVERRPCFSALTVDETYVPKEFKAETFTFHSDICTLPEKEKQIKKQTALAELVKHKPKATAEQLKTVMDDFAQFLDTCCKAADKDTCFSTEGPNLVTRCKDALAGGGSGGGSQYYDYDIPLFMYGQISPNCAPECNCPHSYPTAMYCDDLKLKSVPMVPPGIKYLYLRNNQIDHIDEKAFENVTDLQWLILDHNLLENSKIKGKVFSKLKQLKKLHINYNNLTESVGPLPKSLQDLQLTNNKISKLGSFDGLVNLTFIYLQHNQLKEDAVSASLKGLKSLEYLDLSFNQMSKLPAGLPTSLLTLYLDNNKISNIPDEYFKRFTGLQYLRLSHNELADSGVPGNSFNISSLLELDLSYNKLKSIPTVNENLENYYLEVNELEKFDVKSFCKILGPLSYSKIKHLRLDGNPLTQSSLPPDMYECLRVANEITVNGGGSHHHHHH
For the molecule B5, the binding result in test [3], in test [4], in test [5] and in test [6] was “binds” each time.
